Taken from: PubChem BioAssay AID1159508 (Drosophila RNAi Screening Center, 2015)
Screen: 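Viability reference data for a dsRNA library against RNA-binding protein genes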. System: Drosophila S2R+ cells. Reagent: long dsRNA against Drosophila genes. Duration: 5 days. Read-out: 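Total ATP per well measured by luciferase luminescence after 5 days, expressed as z-scores for each replicate and as their average across up to three replicates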. Reading the numbers: mean ATP z-score: higher = more total ATP luminescence. Active means: In these data the active calls have mean ATP z-score at about -2 or lower, or at about 2 or higher. Meaning of the calls: active = strong ATP change (up or down); inactive = no strong ATP change.
The whole screen tested 812 reagents; below is a random part of them. 18 of all reagents (2.2%) were called active. 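Calls include both increased and decreased ATP; roughly one in four reagents has no third replicate value.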 Not all columns of the deposit are shown. No sequences are given here. Not stated in the record: the amount of reagent.

Depletion of Ddx1 (GeneID 40457) [DRSC11862] came out at: mean ATP z-score -0.232; inactive.
Against Ddx1 (GeneID 40457) [DRSC42644], the values are mean ATP z-score -0.416; inactive.
CG31156 (GeneID 42669) [DRSC15753] showed mean ATP z-score 0.101; inactive.
Against CG31156 (GeneID 42669) [DRSC15755], the values are mean ATP z-score -0.269; inactive.
After knock-down of Cpsf160 (GeneID 44250) [DRSC05968] the results were mean ATP z-score 0.787; inactive.
Knock-down of Cpsf160 (GeneID 44250) [DRSC42648] gave: mean ATP z-score 0.178; inactive.
After knock-down of CG8545 (GeneID 36365) [DRSC07210], the screen gave mean ATP z-score 0.115; inactive.
Silencing of CG8545 (GeneID 36365) [DRSC35557] gave: mean ATP z-score 1.91; inactive.
Against CG3927 (GeneID 37576) [DRSC04433], the entry reads mean ATP z-score -0.258; inactive.
CG3927 (GeneID 37576) [DRSC42281] scored mean ATP z-score 1.17; inactive.
rump (GeneID 41138) [DRSC16480] gave mean ATP z-score 1.3; inactive.
For rump (GeneID 41138) [DRSC42718] the deposit lists mean ATP z-score 0.855; inactive.
Against ps (GeneID 44258) [DRSC16388], the entry reads mean ATP z-score 0.608; inactive.
Depletion of ps (GeneID 44258) [DRSC29315] resulted in: mean ATP z-score 0.517; inactive.

Part of the list above in another layout:
target gene | DRSC id | mean ATP z-score | outcome
CG31156 (GeneID 42669) | DRSC15755 | -0.269 | inactive
Cpsf160 (GeneID 44250) | DRSC05968 | 0.787 | inactive
